Experimental data from patent US20240218023A1, “CYCLIC PEPTIDE-N-ACETYLGALACTOSAMINE (GALNAC) CONJUGATES FOR DRUG DELIVERY TO LIVER CELLS” (MICROBIO (SHANGHAI) CO., LTD., priority 2021, published 2024).
pKd: −log10 of the molar value. Not every detail of the peptide structures is certain; ends, links or a residue may be inferred.

Legend:
HepG2 cells [1] = experiment: Cellular uptake / binding of FAM-labeled ligands to HepG2 cells (flow cytometry, proportion of FAM positive cells); assay type: cell-based, human; conditions: for Efficiency (%) of cellular uptake (percentage of ligand-bound HepG2 cells): 24 h; for pKd: HepG2 cells, read-out: Equilibrium dissociation constant (kd); for binding ability as compared to others and commercialized tri-GalNAc: among 14 variants; for Efficiency (%) of cellular uptake (percentage of ligand-bound HepG2 cells) / binding ability as compared to others and commercialized tri-GalNAc: HepG2
Description: The human hepatocellular carcinoma (HepG2) cell line was purchased from Shanghai Zhong Qiao Xin Zhou Biotechnology Co., Ltd. and maintained in minimum essential medium (Gibco, ThermoFisher Scientific, USA) with 10% fetal bovine serum (Gibco, ThermoFisher Scientific, USA), 200 units/mL penicillin plus 200 units/mL streptomycin at 37° C. with 5% CO2.
Cells were seeded in 24-well plates with a density of 1.5×10^5 cells per well and incubated under 37° C., 5% CO2. After 18 h of incubation, media were replaced to MEM with 2% FBS and FAM-labeled ligands were added with final concentrations of 1.6, 8, 40 or 200 nM. After 24 h of incubation, cells were washed twice with 1×PBS and analyzed by LSRFortessa (BD Biosciences, NJ, USA). The binding efficiency was evaluated by the proportion of FAM positive cells.
HepG2 cell was treated by 14 cyclic peptide-tri-GalNAc ligand variants with serial diluted concentration of 1.6, 8, 40 or 200 nM. Commercialized tri-GalNAc used in Givosirna was used as positive control and cyclic peptide w/o tri-GalNAc was negative control. […] Equilibrium dissociation constant (kd) for 5-FAM-CPMB-0013 (ID013), 5-FAM-CPMB-0023 (ID023), 5-FAM-CPMB-0035 (ID035) and commercialized tri-GalNAC were 7.0, 8.6, 5.7 and 18 nM, respectively.

HepG2 cells [2] = experiment: Endosomal escape assay: endosome and cytosol fractions of HepG2 cells, fluorescence intensity; assay type: cell-based, human; conditions: HepG2, 1 μM ligand, 3 days; for fold higher fluorescence intensity than commercialized tri-GalNAC in cytosolic fractions: cytosol fraction; for fold less fluorescence intensity than commercialized tri-GalNAC in endosome fractions: endosome fraction

Row | SMILES | Efficiency (%) of cellular uptake (percentage of ligand-bound HepG2 cells) (HepG2 cells [1]; 1.6 nM ligand) | Efficiency (%) of cellular uptake (percentage of ligand-bound HepG2 cells) (HepG2 cells [1]; 8 nM ligand) | Efficiency (%) of cellular uptake (percentage of ligand-bound HepG2 cells) (HepG2 cells [1]; 40 nM ligand) | Efficiency (%) of cellular uptake (percentage of ligand-bound HepG2 cells) (HepG2 cells [1]; 200 nM ligand) | pKd (HepG2 cells [1]) | binding ability as compared to others and commercialized tri-GalNAc (HepG2 cells [1]) | fold higher fluorescence intensity than commercialized tri-GalNAC in cytosolic fractions (HepG2 cells [2]) | fold less fluorescence intensity than commercialized tri-GalNAC in endosome fractions (HepG2 cells [2])
1 | CC(=O)N[C@H]1[C@H](OCCCC(=O)NCCCC[C@@H]2NC(=O)CNC(=O)[C@H](CCCCNC(=O)CCCO[C@@H]3O[C@H](CO)[C@H](O)[C@H](O)[C@H]3NC(C)=O)NC(=O)[C@H](CCC(=O)NCCCCCCNC(=O)c3ccc4c(c3)C(=O)OC43c4ccc(O)cc4Oc4cc(O)ccc43)NC(=O)[C@H](CCCCNC(=O)CCCO[C@@H]3O[C@H](CO)[C@H](O)[C@H](O)[C@H]3NC(C)=O)NC(=O)CNC2=O)O[C@H](CO)[C@H](O)[C@@H]1O [5-FAM-CPMB-0013] | 10.5% | 54.6% | 90.7% | 98.6% | 8.15 | relatively higher binding ability | 1.2 fold | 0.7 fold
2 | CC(=O)N[C@H]1[C@H](OCCCC(=O)NCCCC[C@H]2NC(=O)CNC(=O)[C@@H](CCCCNC(=O)CCCO[C@@H]3O[C@H](CO)[C@H](O)[C@H](O)[C@H]3NC(C)=O)NC(=O)[C@@H](CCC(=O)NCCCCCCNC(=O)c3ccc4c(c3)C(=O)OC43c4ccc(O)cc4Oc4cc(O)ccc43)NC(=O)[C@@H](CCCCNC(=O)CCCO[C@@H]3O[C@H](CO)[C@H](O)[C@H](O)[C@H]3NC(C)=O)NC(=O)CNC2=O)O[C@H](CO)[C@H](O)[C@@H]1O [5-FAM-CPMB-0023] | 6.2% | 47.2% | 91.2% | 99.2% | 8.07 | relatively higher binding ability | 1.6 fold | 0.5 fold
